The text below walks through data of PMC2680336.

Sequences of proteins named here, by UniProt entry; tags and fusion partners are left off.
UniProt P53350: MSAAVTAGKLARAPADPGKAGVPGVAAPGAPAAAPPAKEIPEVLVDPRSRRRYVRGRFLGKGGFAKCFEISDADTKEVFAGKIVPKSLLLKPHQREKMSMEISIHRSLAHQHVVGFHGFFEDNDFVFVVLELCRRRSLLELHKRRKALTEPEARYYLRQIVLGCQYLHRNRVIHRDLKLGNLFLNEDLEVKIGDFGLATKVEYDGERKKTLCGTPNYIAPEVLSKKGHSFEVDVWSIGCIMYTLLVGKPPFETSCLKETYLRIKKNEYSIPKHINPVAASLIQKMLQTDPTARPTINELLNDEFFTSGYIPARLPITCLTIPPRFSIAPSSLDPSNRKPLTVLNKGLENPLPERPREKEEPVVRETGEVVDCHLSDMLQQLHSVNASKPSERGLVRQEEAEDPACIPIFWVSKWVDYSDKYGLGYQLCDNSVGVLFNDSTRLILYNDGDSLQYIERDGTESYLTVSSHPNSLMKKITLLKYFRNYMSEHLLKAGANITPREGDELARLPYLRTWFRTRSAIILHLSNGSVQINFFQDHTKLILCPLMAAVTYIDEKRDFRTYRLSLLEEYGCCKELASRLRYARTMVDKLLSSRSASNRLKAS

Where two headings read alike, the source gives them in different places. No constants are given. Whether binding was seen depends on the method and setting. In cells and extracts the contact can be indirect. Some results given as binding are weak or reduced against the parent protein; the word gives no strength. For some of these results: Tags and fused reporters may be left off the sequences shown.

Assay [1] addresses T1, HsCYK-4 (RhoGAP subunit of centralspindlin), endogenous (human (endogenous in HeLa)) (UniProt Q9H0H5).
T1 sequence: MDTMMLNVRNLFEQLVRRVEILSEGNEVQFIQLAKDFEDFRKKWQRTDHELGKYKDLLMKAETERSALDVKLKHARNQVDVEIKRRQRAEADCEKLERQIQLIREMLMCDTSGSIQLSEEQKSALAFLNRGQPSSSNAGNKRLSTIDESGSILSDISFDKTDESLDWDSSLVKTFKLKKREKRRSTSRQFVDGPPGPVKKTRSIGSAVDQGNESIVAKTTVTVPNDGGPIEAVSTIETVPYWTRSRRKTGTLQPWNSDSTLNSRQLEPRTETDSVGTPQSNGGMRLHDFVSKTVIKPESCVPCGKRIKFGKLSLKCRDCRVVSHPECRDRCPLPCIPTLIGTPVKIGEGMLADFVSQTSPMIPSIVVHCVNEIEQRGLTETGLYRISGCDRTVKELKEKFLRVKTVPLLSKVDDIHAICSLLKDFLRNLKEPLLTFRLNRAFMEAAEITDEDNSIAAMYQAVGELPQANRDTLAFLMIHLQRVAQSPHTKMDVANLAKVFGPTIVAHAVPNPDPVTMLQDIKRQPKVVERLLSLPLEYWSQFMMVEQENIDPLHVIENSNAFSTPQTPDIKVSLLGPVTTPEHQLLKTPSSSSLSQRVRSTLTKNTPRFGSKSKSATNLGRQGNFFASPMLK
Nature of the assay: co-IP; anti-HsCYK-4 (or control goat IgG) immunoprecipitation from DSP-treated whole-cell extracts of HeLa cells released from a nocodazole block, sampled at timepoints; blots for Plk1 and Ect2; lysis buffer 50 mM HEPES pH 7.5, 100 mM NaCl, 0.5% NP-40, 10% glycerol.

Assay [2] deals with T2, myc-BRCT* (myc-tagged N-terminal fragment of Ect2, 1-352 T342A) (human) (UniProt Q9H8V3).
T2 sequence: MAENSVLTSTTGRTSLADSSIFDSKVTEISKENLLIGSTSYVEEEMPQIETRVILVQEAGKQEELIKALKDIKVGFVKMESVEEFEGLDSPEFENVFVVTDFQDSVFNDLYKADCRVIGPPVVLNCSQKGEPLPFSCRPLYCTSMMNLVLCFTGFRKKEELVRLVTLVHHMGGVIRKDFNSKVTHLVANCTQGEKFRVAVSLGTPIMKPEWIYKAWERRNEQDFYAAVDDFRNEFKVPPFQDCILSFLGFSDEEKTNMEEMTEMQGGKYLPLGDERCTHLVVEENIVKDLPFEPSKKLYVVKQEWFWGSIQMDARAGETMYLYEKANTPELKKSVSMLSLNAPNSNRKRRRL
Nature of the assay: co-IP; HeLa cotransfected with FLAG-HsCYK-4 versions and myc-BRCT*; mitotic cell extracts immunoprecipitated with anti-myc, blots with anti-FLAG and anti-myc; with or without Plk1 inhibition; control with myc peptide as competitor.

Assay [3] addresses T3, myc-Ect2 (full-length Ect2, myc epitope-tagged) (human) (UniProt Q9H8V3).
T3 sequence: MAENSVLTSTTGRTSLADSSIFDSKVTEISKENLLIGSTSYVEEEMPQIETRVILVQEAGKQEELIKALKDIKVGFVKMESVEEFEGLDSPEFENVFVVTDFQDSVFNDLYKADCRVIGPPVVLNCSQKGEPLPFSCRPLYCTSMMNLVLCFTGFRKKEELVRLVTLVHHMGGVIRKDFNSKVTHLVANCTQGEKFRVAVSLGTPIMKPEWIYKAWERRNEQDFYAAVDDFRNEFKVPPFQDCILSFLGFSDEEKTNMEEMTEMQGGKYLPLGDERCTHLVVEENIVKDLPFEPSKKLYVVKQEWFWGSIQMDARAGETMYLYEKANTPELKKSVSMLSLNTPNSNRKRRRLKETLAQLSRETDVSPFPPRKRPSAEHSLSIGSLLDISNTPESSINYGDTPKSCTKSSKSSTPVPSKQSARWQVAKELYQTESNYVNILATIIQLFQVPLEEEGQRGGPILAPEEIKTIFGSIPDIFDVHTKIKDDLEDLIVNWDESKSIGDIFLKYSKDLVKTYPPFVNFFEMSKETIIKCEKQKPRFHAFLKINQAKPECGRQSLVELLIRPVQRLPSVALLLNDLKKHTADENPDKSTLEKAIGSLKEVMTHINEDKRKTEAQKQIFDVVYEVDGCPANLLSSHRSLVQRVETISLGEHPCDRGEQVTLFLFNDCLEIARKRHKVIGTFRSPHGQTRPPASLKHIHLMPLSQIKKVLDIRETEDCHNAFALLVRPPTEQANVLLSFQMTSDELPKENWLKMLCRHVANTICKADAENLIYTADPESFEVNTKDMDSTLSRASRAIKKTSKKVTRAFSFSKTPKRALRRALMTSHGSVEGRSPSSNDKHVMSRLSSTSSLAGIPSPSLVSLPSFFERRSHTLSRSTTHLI
Nature of the assay: co-IP; HeLa cotransfected with FLAG-HsCYK-4 versions and myc-Ect2; arrested 15 h with 5 uM S-trityl-L-cysteine (+ 200 nM BI 2536 where indicated), then RO-3306 for 20 min; whole-cell extracts immunoprecipitated with anti-myc, blots with anti-FLAG and anti-myc.

The target in assay [4] is T1, HsCYK-4 (RhoGAP subunit of centralspindlin), endogenous (human (endogenous in HeLa)). Nature of the assay: co-IP; anti-HsCYK-4 (or control goat IgG) immunoprecipitation from DSP-treated whole-cell extracts of HeLa cells released from a nocodazole block, sampled at timepoints; blots for Plk1 and Ect2; lysis buffer 50 mM HEPES pH 7.5, 100 mM NaCl, 0.5% NP-40, 10% glycerol. This is another data set of the same source.

As for “Polo-like kinase 1 (Plk1), endogenous (from UniProt P53350 1-603)”, the binding entry in assay [1] is recorded as “binds weakly”.

B1: FLAG-HsCYK-4, wild-type (protein, UniProt Q9H0H5 1-632)
chain: MDTMMLNVRNLFEQLVRRVEILSEGNEVQFIQLAKDFEDFRKKWQRTDHELGKYKDLLMKAETERSALDVKLKHARNQVDVEIKRRQRAEADCEKLERQIQLIREMLMCDTSGSIQLSEEQKSALAFLNRGQPSSSNAGNKRLSTIDESGSILSDISFDKTDESLDWDSSLVKTFKLKKREKRRSTSRQFVDGPPGPVKKTRSIGSAVDQGNESIVAKTTVTVPNDGGPIEAVSTIETVPYWTRSRRKTGTLQPWNSDSTLNSRQLEPRTETDSVGTPQSNGGMRLHDFVSKTVIKPESCVPCGKRIKFGKLSLKCRDCRVVSHPECRDRCPLPCIPTLIGTPVKIGEGMLADFVSQTSPMIPSIVVHCVNEIEQRGLTETGLYRISGCDRTVKELKEKFLRVKTVPLLSKVDDIHAICSLLKDFLRNLKEPLLTFRLNRAFMEAAEITDEDNSIAAMYQAVGELPQANRDTLAFLMIHLQRVAQSPHTKMDVANLAKVFGPTIVAHAVPNPDPVTMLQDIKRQPKVVERLLSLPLEYWSQFMMVEQENIDPLHVIENSNAFSTPQTPDIKVSLLGPVTTPEHQLLKTPSSSSLSQRVRSTLTKNTPRFGSKSKSATNLGRQGNFFASPMLK
Take B1: the binding result in assay [2] and in assay [3] was “binds” in each case.

B2: Ect2 (Rho GTP exchange factor), endogenous (protein, UniProt Q9H8V3-4 1-883)
chain: MAENSVLTSTTGRTSLADSSIFDSKVTEISKENLLIGSTSYVEEEMPQIETRVILVQEAGKQEELIKALKDIKVGFVKMESVEEFEGLDSPEFENVFVVTDFQDSVFNDLYKADCRVIGPPVVLNCSQKGEPLPFSCRPLYCTSMMNLVLCFTGFRKKEELVRLVTLVHHMGGVIRKDFNSKVTHLVANCTQGEKFRVAVSLGTPIMKPEWIYKAWERRNEQDFYAAVDDFRNEFKVPPFQDCILSFLGFSDEEKTNMEEMTEMQGGKYLPLGDERCTHLVVEENIVKDLPFEPSKKLYVVKQEWFWGSIQMDARAGETMYLYEKANTPELKKSVSMLSLNTPNSNRKRRRLKETLAQLSRETDVSPFPPRKRPSAEHSLSIGSLLDISNTPESSINYGDTPKSCTKSSKSSTPVPSKQSARWQVAKELYQTESNYVNILATIIQLFQVPLEEEGQRGGPILAPEEIKTIFGSIPDIFDVHTKIKDDLEDLIVNWDESKSIGDIFLKYSKDLVKTYPPFVNFFEMSKETIIKCEKQKPRFHAFLKINQAKPECGRQSLVELLIRPVQRLPSVALLLNDLKKHTADENPDKSTLEKAIGSLKEVMTHINEDKRKTEAQKQIFDVVYEVDGCPANLLSSHRSLVQRVETISLGEHPCDRGEQVTLFLFNDCLEIARKRHKVIGTFRSPHGQTRPPASLKHIHLMPLSQIKKVLDIRETEDCHNAFALLVRPPTEQANVLLSFQMTSDELPKENWLKMLCRHVANTICKADAENLIYTADPESFEVNTKDMDSTLSRASRAIKKTSKKVTRAFSFSKTPKRALRRALMTSHGSVEGRSPSSNDKHVMSRLSSTSSLAGIPSPSLVSLPSFFERRSHTLSRSTTHLI
Regarding B2, the binding entry in assay [4] is “binds”.
